# Reference: article PMC12040169 (PLOS Biology, 2025)
# This is one part of the list.
# Tested on: T1, CTL2-GFP (C. trachomatis L2/434/Bu, GFP-expressing)
# T1 construct: L2/434/Bu, GFP-expressing
# Set-up: species or system HeLa; Intracellular C. trachomatis growth in HeLa cells, bulk GFP fluorescence relative to DMSO
# Settings: bulk GFP, single well; 28.5 h, 10 µM; inhibitor
row,Compound,% of control remaining [%]
1,Cc1ccccc1C(c1cnccn1)N(C)C(=O)C1CCN(S(=O)(=O)C(C)C)CC1 (stereo not drawn) [CBK060242],113.45
2,CCc1nc2ccccc2n1C1CCN(C(=O)Cc2cccnc2)CC1 [CBK306389],114.148
3,COc1ccc(Cl)cc1NC(=S)NNC(=O)c1cccnc1 [CBK267161],129.06
4,N#Cc1c(NC(=O)c2cccnc2)sc2c1CCCCC2 [CBK287584],106.112
5,Cc1cc2nnc(SC(C)c3nc(-c4ccccc4)no3)n2c(C)n1 (stereo not drawn) [CBK298306],81.4219
6,O=C(O)C1CC(=O)N(CCc2c[nH]c3ccc(Cl)cc23)C1 (stereo not drawn) [CBK287211],141.121
7,O=C(O)C1CCCCC1C(=O)NCCc1ccccc1 (stereo not drawn) [CBK261707],121.51
8,CN(C)CC1CCCN(C(=O)c2cc3cc(F)ccc3n2C)C1 (stereo not drawn) [CBK282122],143.997
9,CCc1nc2ccccc2n1CC(=O)O [CBK111477],150.4
10,COC(=O)Cn1c(CN2CCN(c3cccc(Cl)c3)CC2)nc2c1c(=O)n(C)c(=O)n2C [CBK269598],129.514
11,COc1ccc(C(=O)NCCc2nc3ccccc3[nH]2)cc1 [CBK261040],93.4151
12,O=C(NCCOc1ccccc1)N1CCN(c2ccccc2)CC1 [CBK155198],157.974
13,CN1CCN(C(=O)CN(C)S(=O)(=O)c2ccc3ccccc3c2)CC1 [CBK267053],108.996
14,FC(F)(F)c1ccc(Oc2ccc(-c3noc(-c4ccccn4)n3)cc2)nc1 [CBK270152],134.658
15,O=C1CCC(=O)N1CCOc1nccnc1N1CCN(CC2CC2)CC1 [CBK084305],114.078
16,Cc1ccccc1C1(O)CCN(C(=O)C(c2cccs2)c2cccs2)CC1 [CBK286483],108.505
17,CC(=O)Nc1cccc(NC(=O)N(CCC#N)C2CCCCC2)c1 [CBK156367],115.539
18,O=C(O)c1cccc(NC(=O)c2ccc(S(=O)(=O)N3CCCCC3)cc2)c1 [CBK265185],124.567
19,O=C(NCCc1c[nH]c2ccccc12)NC(=O)C1CCNCC1 [CBK051094],111.579
20,O=C(COc1ccc(Cl)cc1Cl)Nc1ccc2cc[nH]c2c1 [CBK160023],109.569
21,O=C(Nc1ccc(F)cc1)N[C@H]1[C@H](O)[C@@H](N2CCCCC2)[C@@H]2OC[C@H]1O2 [CBK288826],135.886
22,COc1ccccc1NC(=O)c1c(NC(=O)c2cccs2)sc2c1CCC(C(C)(C)C)C2 (stereo not drawn) [CBK264123],112.231
23,Cc1nn(CCC#N)c(C)c1[C@@H]1C=C[C@@H](NS(=O)(=O)c2ccccc2)C1 [CBK288805],112.58
24,COc1ccc(C(=O)Nc2ccc(C(C)=O)cc2)cc1[N+](=O)[O-] [CBK262457],100
25,COc1cccc(C(=O)/C=C\Nc2ccc(S(=O)(=O)Nc3onc(C)c3C)cc2)c1 [CBK264206],13.6439
26,Cc1ccccc1-c1nnc(SC(C)C)n1CCNCCO [CBK200084T],147.947

row,Compound,% of control remaining [%]
1,O=S(=O)(N1CCCCCC1)N1CCN(S(=O)(=O)N2CCOCC2)CC1 [CBK269152],145.9
2,Cc1cc(N2CCCC(N(C)S(=O)(=O)c3cccc(F)c3)CC2)nc(C)n1 (stereo not drawn) [CBK285935],105.425
3,Cc1nc(=O)c(-c2ccccc2)c(C)n1-c1cccc(C(=O)O)c1 [CBK286965],129.285
4,CC(C)(C)NC(=O)Cn1c(=O)n(Cc2cccs2)c2ncccc21 [CBK283844],110.816
5,CN(C)CCOC(=O)c1ccc2[nH]c3c(c2c1)CSCC3 [CBK009731C],100
6,CCNS(=O)(=O)c1ccc(CCC(=O)Nc2ccc3c(c2)OCO3)cc1 [CBK268367],146.366
7,Cc1cc(CNC(=O)c2ccc3c(c2)OCO3)c2ccccc2n1 [CBK270014],99.8325
8,COc1ccc(C2(C(=O)NCc3ccc(-c4ccc(C(N)=O)c(C)n4)cc3)CCCC2)cc1 [CBK285647],42.5522
9,Fc1ccc(Sc2nc3ccccc3nc2N2CCCC2)cc1 [CBK089543],98.1829
10,COCC(=O)NC[C@H]1C[C@@H]2CCN1C[C@@H]2c1cc(-c2ccccc2)nc(C)n1 [CBK289123],117.924
11,Cc1cc(C)nc(Nc2n[nH]c(-c3ccc(N)cc3)n2)n1 [CBK267131],173.055
12,CCCOC1CCCN(S(=O)(=O)c2cnc3ccsc3c2)C1 (stereo not drawn) [CBK306367],118.108
13,Cc1noc(C)c1NC(=O)N(Cc1ccc2ccccc2c1)CC1CCNCC1 [CBK049774],61.7987
14,CCn1c2cc(C)sc2c2cnn(Cc3cccnc3)c(=O)c21 [CBK284169],109.14
15,CN(C)[C@H]1CC[C@@H](Cc2ccccc2)C[C@@H]1NC(=O)c1ccc(Cl)c(Cl)c1 [CBK012488],53.5609
16,N#Cc1cc2c(nc1SCC(O)COCc1ccccc1)CCCC2 (stereo not drawn) [CBK265967],89.283
17,CCN(C(=O)c1ccc(C)nc1)[C@H]1CCO[C@@H](c2cccc(-c3cc(F)cc(F)c3)c2)C1 [CBK285856],118.354
18,Cc1cccc(C)c1NC(=O)CSc1nnc(-c2cccnc2)n1Cc1ccccc1 [CBK265620],105.535
19,N#C/C(=C/c1ccc(OCc2cccc(C(=O)O)c2)cc1)c1ccc([N+](=O)[O-])cc1 [CBK266626],107.729
20,O=c1[nH]c2ncc(-c3cccc4cccnc34)nc2n1C1CCCCC1 [CBK064215],106.085
21,Cc1cccn2c(=O)c(/C=C3\SC(=S)N(C(C)c4ccccc4)C3=O)c(NCCCn3ccnc3)nc12 (stereo not drawn) [CBK263836],141.493
22,O=C(CSc1ccc(Cl)cc1)Nc1cc(C(=O)O)cc(C(=O)O)c1 [CBK266531],112.024
23,COc1ccc(OCCNC(=O)c2ccccc2-n2cccc2)cc1 [CBK149592],104.981
24,Cc1cc(=O)oc2cc(OCc3ccc(S(=O)(=O)N4CCOCC4)cc3)ccc12 [CBK267402],131.956
25,CC(=O)N1CCC(C(=O)Nc2cnc(-c3ccc(F)c(Cl)c3)c(-c3cccnc3)n2)CC1 [CBK036719],78.5737
26,CCC1CCCCN1C(=O)c1cccc(C(=O)OC)c1 (stereo not drawn) [CBK083195],55.8556

row,Compound,% of control remaining [%]
1,O=C(Cn1cccc(C(=O)NC2CCCCC2)c1=O)NC1(c2ccccc2)CCCC1 [CBK286059],142.928
2,O=C(NCCCN1CCCC1=O)c1cnc(-c2ccc(Cl)cc2)c(-c2ccncc2)c1 [CBK037545],143.615
3,O=C(NCc1cccnc1)c1cc(Br)cnc1NCCOc1ccccc1 [CBK076265],94.2294
4,Cc1ccc(S(=O)(=O)Nc2ccc(-c3cn4cccnc4n3)cc2)cc1[N+](=O)[O-] [CBK268936],105.99
5,COCC(=O)N1CCc2sccc2C1c1ccc(NCc2ccc(C)o2)cc1 (stereo not drawn) [CBK286447],120.254
6,CC(C)CSc1nsc(N)n1 [CBK019938],100
7,CN(CC1(C)COC1)C(=O)C1CC(=O)N(C(C)(C)C)C1 (stereo not drawn) [CBK281724],129.055
8,O=C(OCc1ccccc1F)c1cccc(-c2nnc(-c3ccccc3)o2)c1 [CBK267798],127.271
9,O=C(CC1CCCCC1)Nc1ccc(Cl)nc1 [CBK091349],96.3191
10,Cn1cc(C(=O)N2CCc3ncc(Cl)cc3C2)ccc1=O [CBK285130],132.617
11,COc1ccc(C2(C(=O)NCc3cccs3)CC2)cc1 [CBK149831],113.497
12,O=C(NCc1cccs1)c1ccc2[nH]ccc2c1 [CBK149060],118.796
13,CCOC(=O)c1cccc(S(=O)(=O)NC(C)Cn2cncn2)c1 (stereo not drawn) [CBK305820],132.893
14,CN(C(=O)OC(C)(C)C)C1CN(C(c2ccccc2)c2ccccc2)C1 [CBK008111],124.005
15,O=c1ccc2ccc(-c3cccc(OCc4ccccc4)c3)nc2[nH]1 [CBK073722],100
16,O=C(O)CC1Cn2ncc(-c3ccccc3)c2NC1=O (stereo not drawn) [CBK288187],117.1
17,COC(=O)C1C2CCN(CC2)C1SCc1cccc(C(F)(F)F)c1 (stereo not drawn) [CBK010829C],100
18,CC(c1nc2ccccc2[nH]1)N1CCC2(CC1)NCCc1c2[nH]c2ccccc12 (stereo not drawn) [CBK040061],90.7445
19,O=C(Nc1cc2ccccc2c(N2CCNCC2)n1)c1cnccn1 [CBK036346T],112.121
20,O=c1cc(-c2ccc(Br)cc2)nc2[nH]ccn12 [CBK016446],124.855
21,CSCCC(C(=O)O)N1C(=O)C(=Cc2ccc(-c3cc(Cl)cc(Cl)c3)o2)SC1=S (stereo not drawn) [CBK296984],170.305
22,Cc1ccc(S(=O)(=O)N=C2NCN(CCOC(=O)c3ccc([N+](=O)[O-])cc3)CN2)cc1 [CBK265235],100
23,Cn1c(=O)n(C)c2cc(CN3CCN(C4CCCC4)C(=O)C3)ccc21 [CBK281909],147.568
24,O=S(=O)(Nc1ccc(N2CCCCC2)cc1)c1cccc2cccnc12 [CBK263077],118.486
25,Cc1cc(I)cnc1NC(=O)CSc1ccc(Cl)cc1 [CBK266438],116.488
26,CN1CCN(c2c(C(=O)O)cc([N+](=O)[O-])cc2[N+](=O)[O-])CC1 [CBK261519],100
